Results are given in words; binding and its absence hold for the method and conditions named. In cells and extracts the contact can be indirect. Some binding calls cover weakened binding; strength is not graded here. Tags and fused reporters may be left off the sequences shown.
Molecular target: Senataxin (SETX), GFP-SETX (human) (UniProt Q7Z333)
Experiment: co-IP

Amino acid sequences for entries named in this document (tags omitted).
UniProt Q7Z333: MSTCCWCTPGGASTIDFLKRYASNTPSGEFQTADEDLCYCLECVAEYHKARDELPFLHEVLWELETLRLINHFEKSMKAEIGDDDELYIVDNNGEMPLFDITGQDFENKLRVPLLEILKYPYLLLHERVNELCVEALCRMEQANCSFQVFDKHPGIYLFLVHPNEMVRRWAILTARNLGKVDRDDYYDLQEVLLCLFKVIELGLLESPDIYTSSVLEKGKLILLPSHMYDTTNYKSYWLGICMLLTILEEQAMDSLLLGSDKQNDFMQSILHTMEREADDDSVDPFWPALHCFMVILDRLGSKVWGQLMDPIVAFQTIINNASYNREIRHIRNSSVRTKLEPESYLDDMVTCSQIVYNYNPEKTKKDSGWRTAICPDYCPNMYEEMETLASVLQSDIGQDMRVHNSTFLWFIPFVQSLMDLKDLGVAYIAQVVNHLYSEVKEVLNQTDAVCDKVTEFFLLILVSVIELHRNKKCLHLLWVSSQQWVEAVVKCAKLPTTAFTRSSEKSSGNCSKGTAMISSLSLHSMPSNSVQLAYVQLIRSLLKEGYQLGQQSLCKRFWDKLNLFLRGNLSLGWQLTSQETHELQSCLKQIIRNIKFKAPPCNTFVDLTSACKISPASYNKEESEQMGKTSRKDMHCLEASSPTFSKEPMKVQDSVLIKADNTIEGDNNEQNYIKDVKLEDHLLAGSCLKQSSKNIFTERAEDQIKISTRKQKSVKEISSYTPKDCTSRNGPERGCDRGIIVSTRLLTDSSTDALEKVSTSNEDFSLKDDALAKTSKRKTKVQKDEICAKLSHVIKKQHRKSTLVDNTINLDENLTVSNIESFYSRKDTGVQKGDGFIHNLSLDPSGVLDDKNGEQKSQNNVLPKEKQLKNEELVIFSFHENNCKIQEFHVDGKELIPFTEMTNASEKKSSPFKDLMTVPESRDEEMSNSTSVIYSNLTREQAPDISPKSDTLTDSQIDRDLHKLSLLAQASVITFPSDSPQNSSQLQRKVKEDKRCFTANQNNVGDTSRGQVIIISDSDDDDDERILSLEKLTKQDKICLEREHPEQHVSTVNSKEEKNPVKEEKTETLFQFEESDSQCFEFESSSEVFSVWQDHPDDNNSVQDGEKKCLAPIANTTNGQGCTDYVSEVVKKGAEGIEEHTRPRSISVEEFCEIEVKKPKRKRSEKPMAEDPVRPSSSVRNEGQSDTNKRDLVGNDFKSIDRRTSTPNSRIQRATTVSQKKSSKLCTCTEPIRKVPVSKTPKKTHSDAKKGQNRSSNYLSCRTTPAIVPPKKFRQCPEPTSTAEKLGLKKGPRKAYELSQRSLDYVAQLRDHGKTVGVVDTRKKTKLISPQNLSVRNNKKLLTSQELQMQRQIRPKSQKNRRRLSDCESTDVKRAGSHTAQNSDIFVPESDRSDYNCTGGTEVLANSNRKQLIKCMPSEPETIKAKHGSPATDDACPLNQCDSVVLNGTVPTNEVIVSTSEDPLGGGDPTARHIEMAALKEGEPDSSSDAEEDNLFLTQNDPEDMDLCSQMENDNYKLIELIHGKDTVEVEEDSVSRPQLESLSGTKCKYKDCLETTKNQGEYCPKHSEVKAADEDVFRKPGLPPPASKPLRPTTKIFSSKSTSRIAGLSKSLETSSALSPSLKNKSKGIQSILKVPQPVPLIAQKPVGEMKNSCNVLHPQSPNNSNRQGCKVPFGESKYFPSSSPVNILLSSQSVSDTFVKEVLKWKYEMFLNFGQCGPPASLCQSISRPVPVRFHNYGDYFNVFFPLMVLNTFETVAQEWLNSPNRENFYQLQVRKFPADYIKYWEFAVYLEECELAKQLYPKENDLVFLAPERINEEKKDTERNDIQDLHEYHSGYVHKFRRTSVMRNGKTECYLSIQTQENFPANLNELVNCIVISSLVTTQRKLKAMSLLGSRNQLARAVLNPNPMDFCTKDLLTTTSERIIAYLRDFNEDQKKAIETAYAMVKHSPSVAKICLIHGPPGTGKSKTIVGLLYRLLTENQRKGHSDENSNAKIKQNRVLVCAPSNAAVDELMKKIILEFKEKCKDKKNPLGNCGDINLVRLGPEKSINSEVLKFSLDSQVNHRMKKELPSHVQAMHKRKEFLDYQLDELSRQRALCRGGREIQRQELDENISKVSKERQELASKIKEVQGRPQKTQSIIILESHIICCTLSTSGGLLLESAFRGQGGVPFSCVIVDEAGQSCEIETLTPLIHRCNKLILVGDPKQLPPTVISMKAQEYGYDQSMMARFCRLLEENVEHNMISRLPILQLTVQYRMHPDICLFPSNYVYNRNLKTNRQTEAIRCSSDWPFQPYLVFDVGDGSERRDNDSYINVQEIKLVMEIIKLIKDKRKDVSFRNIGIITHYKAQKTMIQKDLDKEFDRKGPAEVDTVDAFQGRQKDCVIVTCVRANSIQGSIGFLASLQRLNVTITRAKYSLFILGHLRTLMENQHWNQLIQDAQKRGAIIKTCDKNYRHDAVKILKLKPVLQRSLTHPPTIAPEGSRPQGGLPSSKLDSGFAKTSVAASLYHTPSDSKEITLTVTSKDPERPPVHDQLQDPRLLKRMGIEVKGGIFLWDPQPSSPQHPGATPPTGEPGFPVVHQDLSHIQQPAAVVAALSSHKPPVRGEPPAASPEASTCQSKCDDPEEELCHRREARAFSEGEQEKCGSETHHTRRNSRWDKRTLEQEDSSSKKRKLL
UniProt P17383: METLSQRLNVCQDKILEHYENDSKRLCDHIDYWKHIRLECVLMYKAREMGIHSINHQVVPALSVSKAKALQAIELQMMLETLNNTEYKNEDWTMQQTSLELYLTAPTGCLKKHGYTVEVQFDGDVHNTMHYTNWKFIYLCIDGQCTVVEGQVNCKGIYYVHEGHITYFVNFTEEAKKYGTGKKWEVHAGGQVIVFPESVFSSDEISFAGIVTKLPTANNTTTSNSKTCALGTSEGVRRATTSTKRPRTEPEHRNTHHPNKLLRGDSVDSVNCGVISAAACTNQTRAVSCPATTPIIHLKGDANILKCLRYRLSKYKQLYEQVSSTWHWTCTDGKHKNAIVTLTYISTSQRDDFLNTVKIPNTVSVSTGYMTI

## HPV-31 E2 protein (from UniProt P17383 1-372)
  binding: binds

B1: Zinc-finger protein ZPR1, FLAG-ZPR1 (protein, UniProt O75312 1-459)
chain: MAASGAVEPGPPGAAVAPSPAPAPPPAPDHLFRPISAEDEEQQPTEIESLCMNCYCNGMTRLLLTKIPFFREIIVSSFSCEHCGWNNTEIQSAGRIQDQGVRYTLSVRALEDMNREVVKTDSAATRIPELDFEIPAFSQKGALTTVEGLITRAISGLEQDQPARRANKDATAERIDEFIVKLKELKQVASPFTLIIDDPSGNSFVENPHAPQKDDALVITHYNRTRQQEEMLGLQEEAPAEKPEEEDLRNEVLQFSTNCPECNAPAQTNMKLVQIPHFKEVIIMATNCENCGHRTNEVKSGGAVEPLGTRITLHITDASDMTRDLLKSETCSVEIPELEFELGMAVLGGKFTTLEGLLKDIRELVTKNPFTLGDSSNPGQTERLQEFSQKMDQIIEGNMKAHFIMDDPAGNSYLQNVYAPEDDPEMKVERYKRTFDQNEELGLNDMKTEGYEAGLAPQR
  binding: binds

— publication PMC12656746
